Data on one molecule can be found in publication PMC9061725, “GGDEF domain as spatial on-switch for a phosphodiesterase by interaction with landmark protein HubP” (NPJ Biofilms and Microbiomes, 2022).

No constants are given. Whether binding was seen depends on the method and setting. A result given as binding can be weak or reduced; the word gives no strength. Tags and fused reporters may be left off the sequences shown.

This assay has as its target FimV domain of S. putrefaciens HubP (S. putrefaciens). The assay is described as follows: SEC; purified MBP-GGDEF of SoPdeB mixed with purified FimV domain, incubated at least 1 h at 4 °C, then size exclusion chromatography (Superdex 200); both purified. For orientation: SEC sorts molecules by how far they enter the pores of the column.

B1: MBP-GGDEF_(SoPdeB), GGDEF domain of S. oneidensis PdeB, wild type (domain or fragment, UniProt Q8EJM6 454-587, looked up)
chain: RSLAVCYLDLEQFKLINDSCGHTAGDRMLAMVARAIQSCLGPQELLARIGGDEFGLVICDRTALAVAQLLKQIIAQVSLQVLHDKNCNYKVGLSIGVAFGRAPYINAQELLKDADIACIAAKAKGTNQIHIYDD
notes: GGDEF (diguanylate cyclase) domain of the phosphodiesterase PdeB of Shewanella oneidensis; construct limits may stand there; The MBP tag is named for SEC, iSCAMS and pull-down; also called SoGGDEF; SoGGDEF_(PdeB); source: E. coli BL21(DE3), pET24c, purified (His Trap, SEC)
Regarding B1, the binding entry was “binds”.
